# Screen size: about 52,000 sequences; about 210 (0.4%) were called active.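 The calls were made as follows: active = gene whose silencing raises cell survival under the drug, median off-target-corrected z-score across its silencing RNAs 2 or more; inactive = the rest.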 The list shows a part of the results.
# Test: Resistance to Poly (ADP-Ribose) Polymerase inhibitor: Gene Identification via Genome-wide siRNA Screen
# Conditions: mouse BRCA2 R2336H ES cells, olaparib, CellTiter-Glo viability; hits give high values
# Method in brief: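 Mouse BRCA2 R2336H ES cells were reverse-transfected with siRNA (20 nM final), treated at 48 h with 500 nM olaparib, and read by CellTiter-Glo after 72 h. Scores: MAD-based z per siRNA, median per gene, seed off-target correction.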
row,Sequence,z-score
1,GGGUUAAAGCGAGUGGGUCTT against BC023814,inactive: -0.57
2,CCAUAUAUGAUAGGAAACUTT against Pon2,inactive: 0.627
3,CGGUGCUUCUGAAACUAGATT against Lrrc3,inactive: -0.192
4,GGCCUGAGAGUAACUCAAATT against Fhit,inactive: 2.24
5,GCCCGUAUGGAUUUCACACTT against Tcte1l,inactive: -0.327
6,GCACACCAGAUCUACUUCUTT against Cyp2b9,inactive: 0.172
7,GCUCAUAAGUCUAUUACUGTT against Asb14,inactive: -0.282
8,GGCUCAACGGCUUAGGGAATT against B3gat3,inactive: 0.417
9,GGGUUCGAUACGACUGCCATT against Arhgef7,inactive: -0.729
10,GGAUCACUAACUUUUCCAATT against Trpc3,inactive: 0.77
11,GCCGAAUCCGAACAAAACCTT against Tat,active: 1.35
12,GGCCAACUGAUUAAGAAACTT against Chrnb1,active: 2.28
13,GGUAUCAUGGAGGAGAUGGTT against Lhx9,inactive: -0.201
14,GGGCCUAAAAGGGUUAAGGTT against C330019G07Rik,inactive: 0.93
15,GCGAGUCUAUGUGUUCCCUTT against Cox4i2,inactive: -0.46
16,GCCUCGUGUAUCACAGAAUTT against Bpy2ip1,inactive: 0.828
17,CCAAGGCCGAAAAGCCUGUTT against 2510038A11Rik,inactive: 0.36
18,GGAGCUUCACUAAGUAACATT against Zfp239,inactive: -0.416
19,GCUUCUCAAGAGUGAAAUATT against 2600014C01Rik,inactive: -1
20,GGAACAACAUGAUUGUCGUTT against Ugt1a6,inactive: -0.575
21,GGUCAAAUAUGGAGAUCUUTT against Atp2b3,inactive: 0.994
22,GGCCUUUAUCAGCGGUGAUTT against Srd5a2,inactive: -1.99
23,GGACUGAGAACCAGAUCAUTT against 1500026D16Rik,inactive: 2.2
24,GGAAAUAUAUGUCAUGUCATT against Nars,inactive: 0.0093
25,CCAUGUCAACGACCAUCAUTT against Glis2,inactive: 2.11
26,GGUAAAAUGUACUCAAUGUTT against Clp1,inactive: 0.0889

row,Sequence,z-score
1,GGUCGACAUUUUGAAGGAGTT against Fthl17,inactive: -1.43
2,CCCGUUCAAGCAAUUACAUTT against 6030408C04Rik,inactive: 0.256
3,GGUGAACUUUACCUUCAACTT against Mov10,inactive: 0.0478
4,GCCACGCACUAUAAAGAUUTT against Pscd1,inactive: -0.804
5,CGCCCAUGUACAGAUUUGUTT against Olfr429,inactive: -1.91
6,CGGCUCCUUUCAUAUUACCTT against Akap7,inactive: -0.638
7,CCACUAUGACUUCAGGUGUTT against Olfr1465,inactive: 0.337
8,GGAAUGAUAGAAAAUGGACTT against 9130002C22Rik,inactive: 0.219
9,GCUAGAUGCUAUGAAGCGATT against Ap3b1,inactive: -0.42
10,GCUCUACUGCGCUACCAAGTT against Fgf3,inactive: -1.21
11,GGGCAACCUGUCACAUUAUTT against Spam1,inactive: -2.56
12,GCAGGGUAUUGUCAAUGGCTT against 0610040J01Rik,inactive: 0.373
13,GGGAAUUUGAGACCAUUUATT against AI586015,inactive: 0.829
14,GGUUCUGUUAAUGUACCAUTT against Cd53,inactive: -0.36
15,CCUUUACUGUCCAUUCCGATT against Stxbp2,inactive: 0.799
16,GCCCAAAGAUGACAUCGUATT against Gars,inactive: -1.86
17,GCCAAUUUGAAUGGGAUGUTT against 2010012C16Rik,inactive: -0.707
18,GCCUAUGGGUCAUUUCAAATT against Dock11,inactive: -1.18
19,CGAUCCCAUGUUGCCUAAUTT against Fut11,inactive: -0.478
20,GGAGAAACCUGGAAGAAGATT against 6030423D04Rik,inactive: -2.03
21,GAAUAUACUCUUUGUGGUATT against Olfr1220,inactive: -0.16
22,GGCAGAACAUUAAUAGAUATT against Polr3h,inactive: 1.19
23,GCUGUACGCCAAUGUGUACTT against D8Ertd457e,inactive: 0.021
24,CCGAUGACGAACAGUUUGATT against Eif4ebp3,inactive: -1.14
25,CGAGCAAUUAAAUUCCUGUTT against Api5,inactive: 0.238
26,GGAGCUGGACAAGUUUAAGTT against Tjp4,inactive: 1.14

# In a second layout: entries from further up
row | Sequence | z-score
4 | GCCACGCACUAUAAAGAUUTT against Pscd1 | inactive: -0.804
5 | CGCCCAUGUACAGAUUUGUTT against Olfr429 | inactive: -1.91
6 | CGGCUCCUUUCAUAUUACCTT against Akap7 | inactive: -0.638

# — PubChem BioAssay AID1347423 (Functional Genomics Laboratory (NCATS/FGL), 2020)
